Laboratory results as given in the supplement of paper PMC10849652.
The other results are listed elsewhere or left out.

Protein sequences, listed by entry. Tags and fused reporters are not part of them. Lines headed by an entry give the natural chain unless they say otherwise; changes in a name come on top.
UniProt Q6PML9: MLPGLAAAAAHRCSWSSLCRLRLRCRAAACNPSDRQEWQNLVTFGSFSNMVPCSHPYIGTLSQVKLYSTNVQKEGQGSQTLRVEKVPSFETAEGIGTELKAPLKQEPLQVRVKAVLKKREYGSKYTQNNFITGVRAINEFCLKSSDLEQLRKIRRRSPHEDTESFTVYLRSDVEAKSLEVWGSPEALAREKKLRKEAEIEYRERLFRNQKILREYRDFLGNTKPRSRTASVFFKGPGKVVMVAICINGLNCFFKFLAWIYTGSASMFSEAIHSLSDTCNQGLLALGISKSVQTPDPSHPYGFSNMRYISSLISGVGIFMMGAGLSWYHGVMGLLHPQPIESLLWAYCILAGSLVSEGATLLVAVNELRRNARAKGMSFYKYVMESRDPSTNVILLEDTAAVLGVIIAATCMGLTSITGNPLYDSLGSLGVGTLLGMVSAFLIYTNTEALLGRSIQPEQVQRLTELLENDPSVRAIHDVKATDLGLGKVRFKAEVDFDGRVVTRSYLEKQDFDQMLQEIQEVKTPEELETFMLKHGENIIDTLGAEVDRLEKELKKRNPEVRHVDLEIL
UniProt Q8WUX1, whole entry, looked up: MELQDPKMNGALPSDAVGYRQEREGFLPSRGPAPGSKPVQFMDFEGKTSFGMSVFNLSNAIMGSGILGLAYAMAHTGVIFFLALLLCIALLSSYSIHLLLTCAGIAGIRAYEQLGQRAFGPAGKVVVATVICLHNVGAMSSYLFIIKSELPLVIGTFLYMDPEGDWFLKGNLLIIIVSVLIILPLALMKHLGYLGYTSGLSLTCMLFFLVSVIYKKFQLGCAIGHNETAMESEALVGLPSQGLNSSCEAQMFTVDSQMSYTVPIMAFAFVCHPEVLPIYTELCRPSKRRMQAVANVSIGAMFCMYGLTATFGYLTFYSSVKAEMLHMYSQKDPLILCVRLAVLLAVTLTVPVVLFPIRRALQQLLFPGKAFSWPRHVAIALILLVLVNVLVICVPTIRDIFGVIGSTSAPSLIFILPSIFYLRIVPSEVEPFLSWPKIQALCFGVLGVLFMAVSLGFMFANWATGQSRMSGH
UniProt Q96CQ1: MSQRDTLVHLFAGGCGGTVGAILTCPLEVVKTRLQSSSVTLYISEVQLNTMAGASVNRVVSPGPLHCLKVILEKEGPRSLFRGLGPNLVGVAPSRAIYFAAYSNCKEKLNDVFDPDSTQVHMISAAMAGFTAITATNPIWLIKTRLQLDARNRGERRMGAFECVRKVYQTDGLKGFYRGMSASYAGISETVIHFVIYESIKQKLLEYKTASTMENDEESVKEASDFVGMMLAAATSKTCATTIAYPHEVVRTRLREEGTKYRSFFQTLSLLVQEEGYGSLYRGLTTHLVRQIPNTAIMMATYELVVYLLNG
UniProt Q8TBP6: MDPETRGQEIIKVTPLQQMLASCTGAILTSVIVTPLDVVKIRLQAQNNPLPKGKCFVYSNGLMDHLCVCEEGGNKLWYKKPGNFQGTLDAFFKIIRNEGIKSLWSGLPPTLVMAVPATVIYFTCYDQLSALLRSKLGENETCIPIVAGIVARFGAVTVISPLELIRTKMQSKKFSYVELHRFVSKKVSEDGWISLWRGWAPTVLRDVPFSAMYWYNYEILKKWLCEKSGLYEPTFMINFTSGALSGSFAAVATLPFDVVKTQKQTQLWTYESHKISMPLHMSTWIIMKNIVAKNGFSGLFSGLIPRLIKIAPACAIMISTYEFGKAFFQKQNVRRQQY
UniProt Q8IYB5: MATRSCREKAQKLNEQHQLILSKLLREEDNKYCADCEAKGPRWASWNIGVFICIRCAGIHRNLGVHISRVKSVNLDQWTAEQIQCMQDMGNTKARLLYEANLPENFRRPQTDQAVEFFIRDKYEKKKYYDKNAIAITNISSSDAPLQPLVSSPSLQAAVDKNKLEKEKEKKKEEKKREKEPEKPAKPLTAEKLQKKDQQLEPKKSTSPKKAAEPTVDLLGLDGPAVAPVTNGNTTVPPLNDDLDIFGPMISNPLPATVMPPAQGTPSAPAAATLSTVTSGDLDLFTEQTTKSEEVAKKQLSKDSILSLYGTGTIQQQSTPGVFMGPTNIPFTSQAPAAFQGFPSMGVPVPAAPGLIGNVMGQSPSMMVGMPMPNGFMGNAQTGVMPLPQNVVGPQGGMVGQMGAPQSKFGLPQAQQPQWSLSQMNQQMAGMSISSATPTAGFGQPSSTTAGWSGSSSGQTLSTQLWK
UniProt O00400: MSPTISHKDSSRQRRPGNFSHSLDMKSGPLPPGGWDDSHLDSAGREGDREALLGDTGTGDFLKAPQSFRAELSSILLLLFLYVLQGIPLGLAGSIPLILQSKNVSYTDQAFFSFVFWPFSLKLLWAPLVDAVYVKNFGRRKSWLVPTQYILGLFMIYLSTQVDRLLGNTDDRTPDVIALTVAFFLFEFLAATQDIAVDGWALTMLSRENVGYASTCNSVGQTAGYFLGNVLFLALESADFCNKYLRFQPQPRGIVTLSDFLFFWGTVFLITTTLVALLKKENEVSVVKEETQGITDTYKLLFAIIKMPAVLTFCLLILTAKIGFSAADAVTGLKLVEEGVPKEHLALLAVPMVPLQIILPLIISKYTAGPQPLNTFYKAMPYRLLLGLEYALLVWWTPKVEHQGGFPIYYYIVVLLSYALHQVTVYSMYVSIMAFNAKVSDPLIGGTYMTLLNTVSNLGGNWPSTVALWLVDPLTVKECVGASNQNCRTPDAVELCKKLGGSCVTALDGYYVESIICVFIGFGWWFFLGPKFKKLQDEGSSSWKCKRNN
UniProt Q9H0C2: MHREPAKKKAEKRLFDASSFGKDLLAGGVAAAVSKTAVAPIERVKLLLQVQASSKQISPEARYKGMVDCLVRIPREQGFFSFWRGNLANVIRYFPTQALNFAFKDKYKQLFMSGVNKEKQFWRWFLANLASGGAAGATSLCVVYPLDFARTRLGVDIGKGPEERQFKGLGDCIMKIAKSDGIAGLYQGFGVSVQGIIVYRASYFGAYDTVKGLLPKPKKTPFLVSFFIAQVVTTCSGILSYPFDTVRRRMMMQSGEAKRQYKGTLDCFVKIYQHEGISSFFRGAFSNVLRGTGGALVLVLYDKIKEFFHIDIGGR
UniProt Q92536: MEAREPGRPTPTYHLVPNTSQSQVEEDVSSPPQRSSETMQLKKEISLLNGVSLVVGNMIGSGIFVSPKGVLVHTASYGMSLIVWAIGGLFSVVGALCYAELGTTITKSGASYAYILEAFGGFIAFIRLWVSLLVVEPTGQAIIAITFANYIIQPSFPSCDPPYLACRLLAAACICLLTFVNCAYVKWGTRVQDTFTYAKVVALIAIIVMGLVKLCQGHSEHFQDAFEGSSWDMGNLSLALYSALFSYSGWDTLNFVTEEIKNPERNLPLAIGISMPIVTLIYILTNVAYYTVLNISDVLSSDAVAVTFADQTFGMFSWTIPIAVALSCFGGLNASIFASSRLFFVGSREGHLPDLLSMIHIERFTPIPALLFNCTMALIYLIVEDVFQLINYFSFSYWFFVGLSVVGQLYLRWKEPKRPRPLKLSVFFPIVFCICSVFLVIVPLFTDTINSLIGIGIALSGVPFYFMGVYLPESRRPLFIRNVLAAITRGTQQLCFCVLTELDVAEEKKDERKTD
UniProt Q8TAD4: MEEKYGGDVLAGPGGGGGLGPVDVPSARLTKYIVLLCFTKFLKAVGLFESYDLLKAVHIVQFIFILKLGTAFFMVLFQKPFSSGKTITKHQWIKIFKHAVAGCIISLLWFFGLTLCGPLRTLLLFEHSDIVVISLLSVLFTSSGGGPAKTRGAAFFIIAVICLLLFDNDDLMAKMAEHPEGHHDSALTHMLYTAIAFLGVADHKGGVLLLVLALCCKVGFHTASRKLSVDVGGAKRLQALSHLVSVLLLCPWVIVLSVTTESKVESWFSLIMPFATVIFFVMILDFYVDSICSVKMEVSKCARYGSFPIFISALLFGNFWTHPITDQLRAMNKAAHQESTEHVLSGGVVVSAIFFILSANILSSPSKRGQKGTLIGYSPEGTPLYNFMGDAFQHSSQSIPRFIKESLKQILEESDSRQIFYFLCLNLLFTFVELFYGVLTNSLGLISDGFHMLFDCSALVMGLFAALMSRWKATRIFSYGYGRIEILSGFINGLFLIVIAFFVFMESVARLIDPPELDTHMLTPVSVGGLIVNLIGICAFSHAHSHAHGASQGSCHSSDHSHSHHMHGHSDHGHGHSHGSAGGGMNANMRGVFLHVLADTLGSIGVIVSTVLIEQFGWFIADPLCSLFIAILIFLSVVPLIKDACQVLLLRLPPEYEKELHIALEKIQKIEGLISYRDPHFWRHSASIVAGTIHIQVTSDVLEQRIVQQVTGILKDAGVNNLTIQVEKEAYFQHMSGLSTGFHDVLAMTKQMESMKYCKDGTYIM
UniProt Q13485: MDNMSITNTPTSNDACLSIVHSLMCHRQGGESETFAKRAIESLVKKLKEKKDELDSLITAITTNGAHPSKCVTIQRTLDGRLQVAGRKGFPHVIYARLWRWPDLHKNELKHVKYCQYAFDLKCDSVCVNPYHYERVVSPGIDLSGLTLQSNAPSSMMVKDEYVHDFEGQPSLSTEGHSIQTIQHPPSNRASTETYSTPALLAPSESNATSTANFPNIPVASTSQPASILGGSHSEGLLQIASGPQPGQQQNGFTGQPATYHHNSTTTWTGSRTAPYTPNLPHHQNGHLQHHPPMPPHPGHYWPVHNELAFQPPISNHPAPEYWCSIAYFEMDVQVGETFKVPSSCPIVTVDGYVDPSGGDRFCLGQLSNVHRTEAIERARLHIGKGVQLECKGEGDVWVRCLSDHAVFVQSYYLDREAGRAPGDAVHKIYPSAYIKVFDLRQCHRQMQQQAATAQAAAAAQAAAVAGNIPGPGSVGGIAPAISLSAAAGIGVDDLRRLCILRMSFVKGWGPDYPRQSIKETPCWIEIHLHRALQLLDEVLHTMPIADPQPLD
UniProt P48029: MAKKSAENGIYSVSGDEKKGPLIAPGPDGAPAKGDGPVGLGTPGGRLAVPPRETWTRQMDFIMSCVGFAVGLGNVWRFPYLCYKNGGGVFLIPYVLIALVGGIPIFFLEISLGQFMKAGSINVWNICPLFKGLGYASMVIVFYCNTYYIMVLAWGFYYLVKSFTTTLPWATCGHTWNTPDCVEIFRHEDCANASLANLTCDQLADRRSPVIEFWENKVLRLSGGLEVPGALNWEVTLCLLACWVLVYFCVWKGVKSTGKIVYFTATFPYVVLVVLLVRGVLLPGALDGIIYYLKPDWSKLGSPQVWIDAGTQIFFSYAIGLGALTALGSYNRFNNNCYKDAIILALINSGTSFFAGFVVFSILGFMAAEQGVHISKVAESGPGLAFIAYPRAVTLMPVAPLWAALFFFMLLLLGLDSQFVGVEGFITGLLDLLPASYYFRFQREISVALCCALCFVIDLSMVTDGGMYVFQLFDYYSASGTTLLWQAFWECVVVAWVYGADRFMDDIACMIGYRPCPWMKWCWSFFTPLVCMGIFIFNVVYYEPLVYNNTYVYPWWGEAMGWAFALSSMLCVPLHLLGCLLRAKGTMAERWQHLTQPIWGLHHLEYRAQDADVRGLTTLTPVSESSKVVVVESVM
UniProt Q6NUK1: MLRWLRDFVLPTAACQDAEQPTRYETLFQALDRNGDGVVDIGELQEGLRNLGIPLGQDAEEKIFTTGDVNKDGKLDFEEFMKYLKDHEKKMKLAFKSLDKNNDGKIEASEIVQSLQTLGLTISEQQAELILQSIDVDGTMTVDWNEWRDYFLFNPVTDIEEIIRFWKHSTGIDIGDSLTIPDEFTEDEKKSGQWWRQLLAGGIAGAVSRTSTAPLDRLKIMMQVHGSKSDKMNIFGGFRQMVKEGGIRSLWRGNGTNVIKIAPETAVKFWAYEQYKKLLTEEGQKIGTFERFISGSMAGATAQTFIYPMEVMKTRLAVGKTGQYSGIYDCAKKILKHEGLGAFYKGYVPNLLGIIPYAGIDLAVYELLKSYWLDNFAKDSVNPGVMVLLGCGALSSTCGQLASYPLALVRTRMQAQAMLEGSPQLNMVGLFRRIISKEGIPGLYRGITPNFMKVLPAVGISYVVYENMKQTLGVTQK
UniProt Q15043: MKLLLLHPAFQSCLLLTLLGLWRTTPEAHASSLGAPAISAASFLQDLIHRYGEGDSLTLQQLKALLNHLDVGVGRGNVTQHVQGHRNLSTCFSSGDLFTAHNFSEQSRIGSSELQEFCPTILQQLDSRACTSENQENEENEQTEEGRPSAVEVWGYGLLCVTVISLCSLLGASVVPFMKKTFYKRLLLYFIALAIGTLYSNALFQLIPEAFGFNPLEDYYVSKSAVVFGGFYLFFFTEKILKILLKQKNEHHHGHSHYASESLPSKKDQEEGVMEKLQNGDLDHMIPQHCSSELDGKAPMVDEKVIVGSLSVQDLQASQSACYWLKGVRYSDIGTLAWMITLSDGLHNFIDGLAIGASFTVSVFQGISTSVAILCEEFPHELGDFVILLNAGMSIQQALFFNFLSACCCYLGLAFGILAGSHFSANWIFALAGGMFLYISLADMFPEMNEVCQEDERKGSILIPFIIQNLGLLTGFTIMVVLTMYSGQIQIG

compound: COC(=O)[C@H](CCSC)NC(=O)C1=C(C=C(C=C1)NC[C@H](CS)N)C2=CC=CC=C2; experiment: log2 fold change, soluble protein after heating vs DMSO (PISA); higher = thermal stabilisation; K562 lysate, 10 uM; active = over 0.2 and 3.5 SD of the protein, either way, in both replicates (recomputed)
Method in brief: (§1)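 Soluble protein was defined as the supernatant remaining after 21,000xg for 90 min, following pooling of heated aliquots and adjustment to 0.5% NP-40 at 4°C. Before that, crude K562 extract at 1 mg/mL protein in PBS pH 7.4 with 1 mM MgCl2 was treated with 10 μM compound for 30 min and heated for 3 min across 48°C-58°C. Quantification used TMTpro 16plex LC-MS/MS with channel sums equalised, and values are log-two fold changes in thermal stability relative to solvent controls from duplicates.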

log2 fold change, inactive:
SLC30A9 (UniProt Q6PML9) 0.05
SLC38A5 (UniProt Q8WUX1) -0.042
SLC25A36 (UniProt Q96CQ1) 0
SLC35B2 (UniProt Q8TB61) 0.044
SLC7A1 (UniProt P30825) -0.019
SLC25A40 (UniProt Q8TBP6) 0.086
SMAP1 isoform 2 (UniProt Q8IYB5) -0.046
SLC33A1 (UniProt O00400) -0.047
SLC25A31 (UniProt Q9H0C2) 0.078
SLC6A9 isoform 2 (UniProt P48067) -0.105
SLC25A38 (UniProt Q96DW6) 0.321
SLC7A6 (UniProt Q92536) -0.02
SLC30A5 (UniProt Q8TAD4) -0.157
SMAD4 (UniProt Q13485) -0.028
SLC6A8 (UniProt P48029) -0.027
SLC25A24 (UniProt Q6NUK1) 0.007
SLC39A14 (UniProt Q15043) -0.04

compound: COc1cc(Nc2ncc3c(n2)-c2ccc(Cl)cc2C(c2c(F)cccc2OC)=NC3)ccc1C(=O)O [alisertib]; experiment: as above
Method in brief: as §1

log2 fold change, inactive:
SLC43A1 (UniProt O75387) 0.076
SMARCA2 (UniProt P51531) -0.008
SLC25A25 isoform 3 (UniProt Q6KCM7) -0.011
SLC2A1 (UniProt P11166) -0.002
SLC25A32 (UniProt Q9H2D1) 0.036
SMAP2 (UniProt Q8WU79) -0.004
SLC43A3 isoform 2 (UniProt Q8NBI5) -0.017
SLC25A42 (UniProt Q86VD7) -0.012
SLC35A2 isoform 4 (UniProt P78381) -0.008
SLC25A3 isoform 2 (UniProt Q00325) 0.014
SLC25A10 isoform 2 (UniProt Q9UBX3) 0.004
SLC39A10 (UniProt Q9ULF5) 0.016
SLC6A6 (UniProt P31641) -0.018
SLC30A10 (UniProt Q6XR72) -0.066
SLC4A2 (UniProt P04920) 0.009
SLC2A3 (UniProt P11169) -0.027
SLC7A5 (UniProt Q01650) -0.002
SLC25A15 (UniProt Q9Y619) 0.002
SLC25A37 (UniProt Q9NYZ2) 0.023
SLC4A7 isoform 7 (UniProt Q9Y6M7) 0.01
SLC38A2 (UniProt Q96QD8) -0.047
SLC30A9 (UniProt Q6PML9) -0.008
SLC38A5 (UniProt Q8WUX1) 0.009
SLC25A36 (UniProt Q96CQ1) 0.04
SLC35B2 (UniProt Q8TB61) -0.017
SLC7A1 (UniProt P30825) -0.028
SLC25A40 (UniProt Q8TBP6) 0.049
SMAP1 isoform 2 (UniProt Q8IYB5) 0.003
SLC33A1 (UniProt O00400) 0.06
SLC25A31 (UniProt Q9H0C2) 0.04
SLC6A9 isoform 2 (UniProt P48067) -0.084
SLC25A38 (UniProt Q96DW6) 0.044
SLC7A6 (UniProt Q92536) -0.092
SLC30A5 (UniProt Q8TAD4) 0.071
SMAD4 (UniProt Q13485) 0.008
SLC6A8 (UniProt P48029) 0.012
SLC25A24 (UniProt Q6NUK1) -0.009
SLC39A14 (UniProt Q15043) 0.008

compound: COc1cc2nc(-c3cc(F)ccc3O)nc(N[C@@H]3CNC[C@H]3C(C)(C)O)c2cc1OC; experiment: as above
Method in brief: as §1

log2 fold change, inactive:
SLC43A1 (UniProt O75387) 0.024
SMARCA2 (UniProt P51531) 0.002
SLC25A25 isoform 3 (UniProt Q6KCM7) 0.025
SLC2A1 (UniProt P11166) 0.034
SLC25A32 (UniProt Q9H2D1) 0.001
SMAP2 (UniProt Q8WU79) 0.01
SLC43A3 isoform 2 (UniProt Q8NBI5) -0.015
SLC25A42 (UniProt Q86VD7) -0.048
SLC35A2 isoform 4 (UniProt P78381) 0.141
SLC25A3 isoform 2 (UniProt Q00325) 0.013
SLC25A10 isoform 2 (UniProt Q9UBX3) 0.001
SLC39A10 (UniProt Q9ULF5) 0.011
SLC6A6 (UniProt P31641) 0.016
SLC30A10 (UniProt Q6XR72) 0.009
SLC4A2 (UniProt P04920) -0.001
SLC2A3 (UniProt P11169) 0.002
SLC7A5 (UniProt Q01650) 0.021
SLC25A15 (UniProt Q9Y619) 0.025
SLC25A37 (UniProt Q9NYZ2) 0.007
SLC4A7 isoform 7 (UniProt Q9Y6M7) -0.041
SLC38A2 (UniProt Q96QD8) 0.009
SLC30A9 (UniProt Q6PML9) -0.079
SLC38A5 (UniProt Q8WUX1) 0.001
SLC25A36 (UniProt Q96CQ1) 0.049
SLC35B2 (UniProt Q8TB61) 0.012
SLC7A1 (UniProt P30825) 0.017
SLC25A40 (UniProt Q8TBP6) -0.038
SMAP1 isoform 2 (UniProt Q8IYB5) -0.017
SLC33A1 (UniProt O00400) -0.009
SLC25A31 (UniProt Q9H0C2) 0.004
SLC6A9 isoform 2 (UniProt P48067) 0.071
SLC25A38 (UniProt Q96DW6) 0.097
SLC7A6 (UniProt Q92536) 0.016
SLC30A5 (UniProt Q8TAD4) -0.142
SMAD4 (UniProt Q13485) -0.012
SLC6A8 (UniProt P48029) -0.012
SLC25A24 (UniProt Q6NUK1) 0.012
SLC39A14 (UniProt Q15043) 0.016
